Record: PubChem BioAssay AID504793 (Drosophila RNAi Screening Center, 2011)
The deposit covers about 23,000 reagents; shown is an unselected part of those with a known target gene and a result. In the full data, 62 (0.27%) got an active call. 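Calls come from follow-up tests whose scores are not deposited, so confirmed genes may have low counts here; counts are not normalised per plate.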 Raw values are not corrected between plates.

Screen: 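Whole-genome screen for parts of the DNA damage checkpoint at G2/M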 (primary screen)
Cell system: Drosophila S2R+ cells
Knock-down reagent: long dsRNA against Drosophila genes, about 0.25 µg dsRNA per well
Time to read-out: 4 days of dsRNA, then 4 hours of drug before read-out
Treatment: doxorubicin 0.5 µM for 4 hours to cause double-strand breaks, in cells also given a low, harmless dose of dsRNA against nbs to sensitise the assay
Read-out: 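Per-well count of mitotic cells stained for phospho-histone H3 after doxorubicin exposure, used as mitotic index; counts are raw and not normalised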
Scale: mitotic cells: higher = more cells in mitosis, weaker G2 arrest
Call rule: 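Genes are called active only when high mitotic counts were reproduced with independent dsRNAs and mitosis was checked for delay without damage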
Calls: active = confirmed in follow-up tests; inactive = not confirmed

CG31323 (GeneID 318682) [SID104194693]: mitotic cells, replicate 1 = 7; activity call = inactive
CG17746 (GeneID 38400) [SID104188313]: mitotic cells, replicate 1 = 8; activity call = inactive
CG17746 (GeneID 38400) [SID104202690]: mitotic cells, replicate 1 = 6; activity call = inactive
Mettl2 (GeneID 38197) [SID104188190]: mitotic cells, replicate 1 = 5; activity call = inactive
Mettl2 (GeneID 38197) [SID104208271]: mitotic cells, replicate 1 = 8; activity call = inactive
CG12056 (GeneID 31855) [SID104197588]: mitotic cells, replicate 1 = 13; activity call = inactive
Cyp6a18 (GeneID 43304) [SID104196424]: mitotic cells, replicate 1 = 13; activity call = inactive
alpha4GT1 (GeneID 33512) [SID104180280]: mitotic cells, replicate 1 = 4; activity call = inactive
Cyp303a1 (GeneID 49165) [SID104183092]: mitotic cells, replicate 1 = 3; activity call = inactive
CG31248 (GeneID 40853) [SID104202102]: mitotic cells, replicate 1 = 8; activity call = inactive
PolA2 (GeneID 43278) [SID104196433]: mitotic cells, replicate 1 = 21; activity call = inactive
Gs1l (GeneID 33653) [SID104180546]: mitotic cells, replicate 1 = 3; activity call = inactive
Fsn (GeneID 36460) [SID104186667]: mitotic cells, replicate 1 = 8; activity call = inactive
Fsn (GeneID 36460) [SID104206248]: mitotic cells, replicate 1 = 5; activity call = inactive
CG9411 (GeneID 32392) [SID104199976]: mitotic cells, replicate 1 = 5; activity call = inactive
CG9411 (GeneID 32392) [SID104205384]: mitotic cells, replicate 1 = 4; activity call = inactive
CG2921 (GeneID 37515) [SID104184116]: mitotic cells, replicate 1 = 9; activity call = inactive
CG2921 (GeneID 37515) [SID104203190]: mitotic cells, replicate 1 = 4; activity call = inactive
CG32152 (GeneID 317885) [SID104202265]: mitotic cells, replicate 1 = 14; activity call = inactive
CG9825 (GeneID 37624) [SID104184361]: mitotic cells, replicate 1 = 3; activity call = inactive
CG9825 (GeneID 37624) [SID104204178]: mitotic cells, replicate 1 = 7; activity call = inactive
Ndg (GeneID 36089) [SID104186015]: mitotic cells, replicate 1 = 8; activity call = inactive
Ndg (GeneID 36089) [SID104206946]: mitotic cells, replicate 1 = 8; activity call = inactive
CG13171 (GeneID 36323) [SID104186091]: mitotic cells, replicate 1 = 2; activity call = inactive
side-II (GeneID 3346206) [SID104181705]: mitotic cells, replicate 1 = 6; activity call = inactive
side-II (GeneID 3346206) [SID104181724]: mitotic cells, replicate 1 = 13; activity call = inactive
side-II (GeneID 3346206) [SID104182272]: mitotic cells, replicate 1 = 6; activity call = inactive
side-II (GeneID 3346206) [SID104201957]: mitotic cells, replicate 1 = 9; activity call = inactive
side-II (GeneID 3346206) [SID104203664]: mitotic cells, replicate 1 = 11; activity call = inactive
verm (GeneID 40149) [SID104190830]: mitotic cells, replicate 1 = 3; activity call = inactive
verm (GeneID 40149) [SID104203329]: mitotic cells, replicate 1 = 5; activity call = inactive
CG8617 (GeneID 36594) [SID104187015]: mitotic cells, replicate 1 = 6; activity call = inactive
CG2656 (GeneID 40857) [SID104192376]: mitotic cells, replicate 1 = 10; activity call = inactive
CG17974 (GeneID 37441) [SID104184091]: mitotic cells, replicate 1 = 7; activity call = inactive
Gfat1 (GeneID 3354921) [SID104201011]: mitotic cells, replicate 1 = 8; activity call = inactive
Gfat1 (GeneID 3354921) [SID104208156]: mitotic cells, replicate 1 = 6; activity call = inactive
DCAF12 (GeneID 41460) [SID104195267]: mitotic cells, replicate 1 = 13; activity call = inactive
dmpd (GeneID 36061) [SID104185884]: mitotic cells, replicate 1 = 7; activity call = inactive
CG7715 (GeneID 42251) [SID104196093]: mitotic cells, replicate 1 = 10; activity call = inactive
Prp4k (GeneID 38032) [SID104187936]: mitotic cells, replicate 1 = 5; activity call = inactive
Prp4k (GeneID 38032) [SID104206054]: mitotic cells, replicate 1 = 2; activity call = inactive
trp (GeneID 43542) [SID104196880]: mitotic cells, replicate 1 = 13; activity call = inactive
Arf1 (GeneID 40506) [SID104191398]: mitotic cells, replicate 1 = 7; activity call = inactive

2 entries already listed, ordered by “mitotic cells, replicate 1”, low to high.
CG17746 (GeneID 38400) [SID104202690]: mitotic cells, replicate 1 = 6; activity call = inactive
CG17746 (GeneID 38400) [SID104188313]: mitotic cells, replicate 1 = 8; activity call = inactive
